Results as given in PubChem BioAssay AID588590 (National Center for Advancing Translational Sciences (NCATS), 2011).
Hit rate of the full screen: of about 390,000 compounds, about 4,000 (1%) were called active. The inconclusive results got no clear call from the source; some entries with a clear call stand among them for comparison. Calls come from the whole dose curve; as a rule, active = well fitted inhibition curve with a large enough effect; inconclusive = small, poorly fitted or top-dose-only effect, or another doubt; inactive = no such curve, though single readings can be large or run the other way. Potencies beside an inconclusive call are fits to weak or partial responses and may not hold up.
Potency is the fitted concentration of half-maximal effect.

Amino acid sequences for entries named in this document (tags omitted). A change or cut given only in a name is not applied to a line headed by its entry.
UniProt Q9UNA4: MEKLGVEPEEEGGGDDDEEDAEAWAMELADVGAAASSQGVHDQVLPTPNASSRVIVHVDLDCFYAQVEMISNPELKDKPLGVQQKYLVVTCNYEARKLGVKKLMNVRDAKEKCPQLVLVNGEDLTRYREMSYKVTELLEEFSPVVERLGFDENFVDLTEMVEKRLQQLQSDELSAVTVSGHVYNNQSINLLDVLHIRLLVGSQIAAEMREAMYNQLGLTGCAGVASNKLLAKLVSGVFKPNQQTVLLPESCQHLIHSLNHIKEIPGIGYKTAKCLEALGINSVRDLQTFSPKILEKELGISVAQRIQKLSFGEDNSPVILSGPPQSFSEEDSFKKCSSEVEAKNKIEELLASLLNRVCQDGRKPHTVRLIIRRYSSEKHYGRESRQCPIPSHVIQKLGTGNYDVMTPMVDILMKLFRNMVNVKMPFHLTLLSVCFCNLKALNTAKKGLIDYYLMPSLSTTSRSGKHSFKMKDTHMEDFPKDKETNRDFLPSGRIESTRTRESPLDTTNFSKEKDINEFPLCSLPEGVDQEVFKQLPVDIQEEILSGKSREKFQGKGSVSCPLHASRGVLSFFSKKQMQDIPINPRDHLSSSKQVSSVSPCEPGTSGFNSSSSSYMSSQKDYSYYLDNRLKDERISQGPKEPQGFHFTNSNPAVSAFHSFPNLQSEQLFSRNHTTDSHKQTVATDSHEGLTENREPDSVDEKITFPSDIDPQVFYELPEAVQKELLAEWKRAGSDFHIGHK

Each compound was assayed against DNA polymerase iota (Homo sapiens) (UniProt Q9UNA4) (assay: qHTS for Inhibitors of Polymerase Iota). Settings: Pol iota fluorescent replication assay, 10 min; series mostly up to 115 µM; activity, negative = inhibition: at the top concentration.
Procedure, shortened: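 Pol iota at 10 nM preincubated 15 min with compounds at room temperature; reaction started with fluorescent substrate, 50 nM final. Fluorescence read kinetically at 0 and 10 min; buffer-only wells as negative control.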
In the case of COc1ccc(-c2ocnc2C(=O)Nc2ccccc2N2CCCCC2)cc1, the Potency is reported as inconclusive: 11.2 µM [inhibitor, partial curve, poor fit].
COc1ccc(-n2ccnc(NCc3cccs3)c2=O)cc1 was tested, and the “activity, negative = inhibition” value was inactive: 14.9%.
COc1ccc(CC(NC(C)=O)C(=O)NC2CCN(S(=O)(=O)c3cccc4ccccc34)CC2)cc1OC (centres undefined) was tested, and the Potency was inconclusive: 70.8 µM [inhibitor, partial curve].
For COC(=O)Cc1n[nH]c(=S)[nH]c1=O, the Potency was inconclusive: 22.4 µM [inhibitor, full curve].
For Cc1ccc(C(=O)Nc2nnc(S(=O)(=O)N(C)Cc3ccc(F)cc3)s2)cc1, the “activity, negative = inhibition” value was inactive: 24.1%.
In the case of [N-]=C=C1C(=S)NC(=O)[C@H]([n+]2ccccc2)[C@H]1c1ccc(Cl)cc1, the “activity, negative = inhibition” value is reported as inactive: 10.5%.
In the case of COc1cccc(-c2nn(C)c3sc(C(=O)NCCc4cccc(C)c4)cc23)c1, the Potency is reported as inconclusive: 89.1 µM [inhibitor, partial curve, poor fit].
With Cc1cc(C)c(S(=O)(=O)/N=C2\C=C(Nc3ccc(C(=O)O)cc3)C(=O)c3ccccc32)c(C)c1 the Potency was active: 14.1 µM.
In the case of Cc1nc2cc(N3CCOCC3)c(NC(=O)C3CC3)cc2c(=O)n1Cc1ccccc1, the Potency is reported as inconclusive: 112 µM [inhibitor, partial curve, poor fit].
With CC[C@H](C)[C@H](NC(N)=O)C(=O)OCC(=O)NCc1ccc(Cl)cc1 the Potency was inconclusive: 39.8 µM [inhibitor, partial curve, poor fit].
In the case of O=c1oc2c(CN3CCCCC3)c(O)ccc2cc1-c1nc2ccccc2[nH]1, the Potency is reported as inconclusive: 112 µM [inhibitor, single point].
In the case of O=c1[nH]c(=O)n(C(c2ccccc2)(c2ccccc2)c2ccccc2)cc1N(CCO)CCO, the “activity, negative = inhibition” value is reported as inactive: 1.15%.
In the case of Cc1ccc(C2NC(c3ccc4c(c3)OCO4)=CC(c3cc(Br)ccc3O)N2)cc1 (centres undefined), the Potency is reported as inconclusive: 14.1 µM [inhibitor, full curve].
Cc1noc(C)c1S(=O)(=O)Nc1cccc(CO)c1 was tested, and the “activity, negative = inhibition” value was inactive: 6.8%.
For COc1ccc(C2OC(=O)CC2C(=O)NCc2ccccc2Cl)cc1OC (centres undefined), the Potency was inconclusive: 79.4 µM [inhibitor, single point].
In the case of CCCNCc1cc(Br)ccc1OCC(=O)NCCc1ccccc1, the Potency is reported as inconclusive: 89.1 µM [inhibitor, single point].
CCOc1ccc(NC(=O)Nc2ccc3nsnc3c2)cc1 was tested, and the “activity, negative = inhibition” value was inactive: 7.95%.
O=C(c1cc2c(s1)CCCC2)N1CCN(S(=O)(=O)c2ccccc2C(F)(F)F)CC1 was tested, and the Potency was inconclusive: 79.4 µM [inhibitor, partial curve, poor fit].
In the case of COc1ccc(-c2csc(NCCc3nc4cc(C(=O)NCCCO)ccc4n3Cc3ccc(C)cc3)n2)cc1, the Potency is reported as inconclusive: 50.1 µM [inhibitor, partial curve, poor fit].
In the case of COC(=O)c1cc2ccccc2n1Cc1ccc(Cl)nc1, the Potency is reported as inconclusive: 3.98 µM [inhibitor, partial curve, poor fit].
For CCOc1ccc(OCC)c(NC(=O)c2cnn(-c3ccc(F)cc3)c2C2CCN(C(=O)OC(C)(C)C)CC2)c1, the Potency was inconclusive: 50.1 µM [inhibitor, partial curve, poor fit].
In the case of CCOC(=O)C1CCCN(C(=O)Cn2ncc3c(C)n(Cc4ccc(F)cc4)c(C)c3c2=O)C1 (centres undefined), the “activity, negative = inhibition” value is reported as inactive: 18.1%.
In the case of CCOC(=O)/C(C#N)=C/c1ccc(-c2ccccc2)o1, the Potency is reported as inconclusive: 100 µM [inhibitor, single point].
CCCCN(C)C(=O)c1oc2ccc(S(=O)(=O)N3CCCCCC3)cc2c1C was tested, and the Potency was inconclusive: 39.8 µM [inhibitor, single point].
With O=S(=O)(c1ccccc1)c1nnn2c1nc(N1CCN(c3ccccc3)CC1)c1cc(Cl)ccc12 the “activity, negative = inhibition” value was inactive: 24.5%.
Oc1ccc(N=C/C=C/c2cccc(Br)c2)cc1-c1nc2ccccc2s1 was tested, and the Potency was active: 10 µM.
In the case of COc1cc2c(NC3CCN(C)CC3)nc(N3CCCN(C)CC3)nc2cc1OCCCCCCN(C)C, the Potency is reported as inconclusive: 50.1 µM [inhibitor, partial curve].
For CC1=NN(c2ccccc2)C(=O)/C1=C/c1ccc(Cl)cc1, the Potency was inconclusive: 2.82 µM [inhibitor, full curve, poor fit].
For CCS(=O)(=O)C1=NN2C(=N)/C(=C\c3ccc(SCc4ccco4)o3)C(=O)N=C2S1, the Potency was inconclusive: 11.2 µM [inhibitor, full curve, poor fit].
In the case of Cc1nc(SCc2ccccc2Cl)c(C#N)c(C)c1C, the “activity, negative = inhibition” value is reported as inactive: 31.9%.
With CC(Nc1nc(-c2ccc(F)cc2)cs1)c1nc2cc(Cl)c(Cl)cc2n1CCCO (centres undefined) the Potency was inconclusive: 12.6 µM [inhibitor, partial curve, poor fit].
With O=C(NCC1(N2CCCCC2)CCCCC1)c1cccc(S(=O)(=O)Nc2ccc(F)cc2)c1 the “activity, negative = inhibition” value was inactive: -22.9%.
In the case of NC1=NC(=O)/C(=C/c2cn(CCC(=O)O)nc2-c2ccc(F)cc2)S1, the “activity, negative = inhibition” value is reported as inactive: 7.04%.
In the case of CC1CCn2c(nc3cc(C(=O)NCCc4ccccc4)ccc32)C1 (centres undefined), the “activity, negative = inhibition” value is reported as inactive: -24.3%.
For O=C(NCc1ccccn1)C1(C(F)(F)F)C/C(=C\Cc2ccccc2)CCCO1 (centres undefined), the Potency was inconclusive: 3.55 µM [inhibitor, full curve, poor fit].
With COc1ccc(CC(=O)NCC2CCCCC2)cc1OC the Potency was inconclusive: 44.7 µM [inhibitor, single point].
With CCC(C)n1c(=N)c(C(=O)NC2CCCC2)cc2c(=O)n3ccccc3nc21 (centres undefined) the Potency was inconclusive: 22.4 µM [inhibitor, full curve, poor fit].
With O=C(CSc1nncc2ccccc12)Nc1cccc(C(=O)O)c1 the Potency was inconclusive: 20 µM [inhibitor, partial curve].
With CC1=NN(c2ccc(C)cc2)C(=O)/C1=C\c1ccc(Br)s1 the Potency was active: 3.55 µM.
In the case of COCCN(C(=O)COC(=O)/C=C/c1ccco1)c1c(N)n(Cc2ccccc2)c(=O)[nH]c1=O, the Potency is reported as inconclusive: 56.2 µM [inhibitor, partial curve, poor fit].
O=C(Cn1cnc2c(nnn2Cc2ccccc2)c1=O)c1ccc(Cl)cc1 was tested, and the Potency was inconclusive: 0.631 µM [inhibitor, partial curve, poor fit].
In the case of COc1cc(O)ccc1-c1nc2cc(C)ccn2c1Nc1ccccc1C, the “activity, negative = inhibition” value is reported as inactive: 2.7%.
In the case of CC(C)(O)C1Cc2cc(/C=C/C(=O)O)c(O)cc2O1 (centres undefined), the Potency is reported as inconclusive: 22.4 µM [inhibitor, single point].
For O=C(O)c1cc(N/N=C/c2ccncc2)ccc1Cl, the “activity, negative = inhibition” value was inactive: 12.8%.
O=C(C1=C[C@H](c2ccccc2)C[C@H](OCc2ccc(CO)cc2)O1)N1CCN(Cc2ccccc2)CC1 was tested, and the Potency was inconclusive: 63.1 µM [inhibitor, partial curve, poor fit].
In the case of Fc1ccc(C(c2ccc(F)cc2)N2CCN(C/C=C/c3ccccc3)CC2)cc1, the Potency is reported as inconclusive: 14.1 µM [inhibitor, partial curve, poor fit].
For CCc1ccc(NC(=O)Cn2nnc(C(=O)Nc3ccc(F)cc3)c2N)cc1, the Potency was inconclusive: 89.1 µM [inhibitor, single point].
With COc1ccc(/C=C2/C(=O)N(c3ccccc3)N=C2C)cc1Br the Potency was active: 1.26 µM.
For Cc1ccc(C)c(CSc2cn(CCNC(=O)c3cccs3)c3ccccc23)c1, the Potency was inconclusive: 3.16 µM [inhibitor, partial curve, poor fit].
In the case of Cc1ccccc1NC(=O)Cn1nnc(C(=O)NCc2cccs2)c1N, the Potency is reported as inconclusive: 89.1 µM [inhibitor, partial curve, poor fit].
For Fc1ccc(C[n+]2csc3ccccc32)cc1, the “activity, negative = inhibition” value was inactive: 4.23%.
With Cc1cccc(NC(=O)CN2C(=O)CC(c3ccccc3)Sc3ccccc32)c1 (centres undefined) the “activity, negative = inhibition” value was inactive: 19.2%.
O=C(Nc1ccc(Cl)c(Cl)c1)c1cccc(S(=O)(=O)NCc2cccnc2)c1 was tested, and the Potency was inconclusive: 28.2 µM [inhibitor, single point].
Cc1ccccc1Nc1nnc(SCC(=O)NCc2ccco2)s1 was tested, and the Potency was inconclusive: 50.1 µM [inhibitor, partial curve, poor fit].
For c1ccc2c(C[C@@H]3CNCCN3CCC34CC5CC(CC(C5)C3)C4)cccc2c1, the Potency was inconclusive: 0.708 µM [inhibitor, full curve, poor fit].
Cn1nc(-c2ccc(Cl)cc2)cc1NC(=O)CC(C)(C)CC(=O)O was tested, and the Potency was inconclusive: 25.1 µM [inhibitor, partial curve, poor fit].
In the case of CCOC(=O)C1=C(C)N(C[C@@H]2CC[C@@H](Cc3ccc(-c4ccccc4)cc3)O2)C(=O)NC1c1ccc(SCc2ccco2)c([N+](=O)[O-])c1 (some centres undefined), the Potency is reported as inconclusive: 35.5 µM [inhibitor, partial curve, poor fit].
For COc1cccc(NC(=O)c2ncn[nH]2)c1, the Potency was inconclusive: 100 µM [inhibitor, single point].
In the case of O=C(NCc1ccccn1)C1CCCN(S(=O)(=O)c2cccc3nsnc23)C1 (centres undefined), the Potency is reported as inconclusive: 35.5 µM [inhibitor, single point].
With COc1cccc(NC(=O)Cn2c(=O)n(CCCCC(=O)NCc3ccc4c(c3)OCO4)c(=O)c3ccccc32)c1 the “activity, negative = inhibition” value was inactive: 11.9%.
In the case of COc1ccc(/C=N/N=C2/NC(=O)C(CC(=O)O)S2)cc1OS(=O)(=O)c1ccccc1 (centres undefined), the Potency is reported as inconclusive: 0.708 µM [inhibitor, full curve, poor fit].
CS(=O)(=O)N(Cc1nnc(-c2cccs2)o1)c1ccc(Cl)cc1F was tested, and the Potency was inconclusive: 10 µM [inhibitor, single point].
O=C1/C(=C\c2ccccn2)SC(=S)N1c1ccc(S(=O)(=O)Nc2nccs2)cc1 was tested, and the Potency was inconclusive: 14.1 µM [inhibitor, full curve, poor fit].
Cn1c(=O)c2c(n(Cc3ccccc3)c1=O)NC(=O)C2CC(=O)N1CCc2ccccc2C1 (centres undefined) was tested, and the Potency was inconclusive: 25.1 µM [inhibitor, partial curve, poor fit].
